Among all 400,000 compounds or so, about 13,000 (3.2%) were called active. Inconclusive means that the source gave no clear call. Such entries were picked first, then a sample of the others. Calls come from the whole dose curve; as a rule, active = well fitted cell-killing curve with a large enough effect; inconclusive = small, poorly fitted or top-dose-only effect, or effect the other way; inactive = flat fitted curve, though single readings scatter. Where the call is inconclusive, the potency comes from a doubtful curve fit.
assay: qHTS assay for MDR1-selective chemotherapeutics: Primary screen using the drug-selected MDR subline cells KB-V1; settings: KB-V1 MDR cells viability, CellTiter-Glo, 72 h; activity change, negative = cytotoxicity: at 46.1 µM (top of the series); note: nearly all actives have a fitted effect of over 60% in size
Procedure, shortened: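 In this primary screen, KB-V1 cells overexpressing P-gp are incubated with library compounds (lowest to highest concentration) for 72 h at 37 degrees C before a luminescent ATP viability read.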
% is set by controls: 0 for no effect and ±100 for the full control effect; potency is the fitted concentration of half-maximal effect.

| Compound | activity change, negative = cytotoxicity | Potency |
| --- | --- | --- |
| COc1ccc(NC(=O)CN(C)S(=O)(=O)c2ccc3c(c2)NC(=O)CS3)cc1 | inconclusive: 0% | – |
| C#CCOCCOCCOCCNc1nc(N2CCN(C(=O)CCCCCCCCCCNC(=O)[C@@H](CCSC)n3cc(CCO)nn3)CC2)nc(N2CCN(C(=O)CCCCCCCCCCNC(=O)[C@H](CCCN=C(N)N)n3cc(C[C@@H](C)CC)nn3)CC2)n1 | – | inconclusive: 11.6 µM [cytotoxic, single point] |
| Cc1cc(NC(=O)CSc2nnc(-c3ccccc3)c(-c3ccccc3)n2)no1 | – | active: 5.17 µM |
| Cc1ccccc1OCCN(C#N)c1nc(N(C)C)nc(N(C)C)n1 | – | inconclusive: 20.6 µM [cytotoxic, partial curve] |
| O=C(NCC1CCCN(Cc2ccc3c(c2)OCCO3)C1)c1ccc2c(c1)OCO2 (configuration not stated) | – | inconclusive: 0.0046 µM [rising, full curve, poor fit] |
| CCc1nn(CC(=O)NCc2ccco2)c(=O)c2cc3c(OC)cccc3n12 | inactive: 10.8% | – |
| Cc1ccsc1C(C(=O)NC1CCCCC1)N(C(=O)c1csnn1)C1CC1 (configuration not stated) | – | inconclusive: 3.26 µM [cytotoxic, partial curve, poor fit] |
| Cc1ccc(S(=O)(=O)Nc2ccc(O)c3ncccc23)cc1 | – | inconclusive: 7.31 µM [cytotoxic, full curve, poor fit] |
| Cc1ccccc1Nc1c(-c2c(F)cccc2Cl)nc2ccc(Br)cn12 | inactive: 10.9% | – |
| Cc1onc(-c2ccccc2)c1C(=O)NNC(=S)NC(=O)/C=C/c1cccs1 | – | inconclusive: 5.8 µM [cytotoxic, partial curve] |
| Cc1cc(C)c2nc(N(CCCN(C)C)C(=O)c3ccc(S(=O)(=O)N4CCCCCC4)cc3)sc2c1 | – | inconclusive: 29.1 µM [cytotoxic, single point] |
| O=C(NCc1ccccc1)C(c1ccccc1)n1c(C2CC2)nc2ccccc21 (configuration not stated) | – | inconclusive: 16.4 µM [cytotoxic, partial curve] |
| CCn1c(SC(C)C(=O)O)nc2sc3c(c2c1=O)CCC3 (configuration not stated) | inactive: 13% | – |
| O=C(Nc1ccc([N+](=O)[O-])cc1NC(=O)c1ccccc1)c1ccccc1 | – | inconclusive: 3.66 µM [cytotoxic, full curve, poor fit] |
| Cc1nc2cc(CC(=O)O)ccc2o1 | – | inconclusive: 16.4 µM [rising, partial curve, poor fit] |
| Cc1cccc(C2=N/C(=C/c3cccs3)C(=O)O2)c1 | – | inconclusive: 1.03 µM [rising, partial curve, poor fit] |
| Cc1ccccc1CSCCNC(=O)CCSc1ccccc1 | – | inconclusive: 23.1 µM [cytotoxic, partial curve, poor fit] |

Complete entries from above. Order of values: activity change, negative = cytotoxicity	Potency
Cc1cccc(C2=N/C(=C/c3cccs3)C(=O)O2)c1 is listed with –	inconclusive: 1.03 µM [rising, partial curve, poor fit]
Cc1cc(C)c2nc(N(CCCN(C)C)C(=O)c3ccc(S(=O)(=O)N4CCCCCC4)cc3)sc2c1 is listed with –	inconclusive: 29.1 µM [cytotoxic, single point]

Reference: PubChem BioAssay AID1347076 (National Center for Advancing Translational Sciences (NCATS), 2019)
